Test results: the supplement of paper PMC10849652
The list shows a part of the results.

By UniProt entry, the sequences of proteins in these tests, tags left out. Where a name states a change or a piece, a line headed by the entry shows the natural chain unless it says otherwise.
UniProt O00170: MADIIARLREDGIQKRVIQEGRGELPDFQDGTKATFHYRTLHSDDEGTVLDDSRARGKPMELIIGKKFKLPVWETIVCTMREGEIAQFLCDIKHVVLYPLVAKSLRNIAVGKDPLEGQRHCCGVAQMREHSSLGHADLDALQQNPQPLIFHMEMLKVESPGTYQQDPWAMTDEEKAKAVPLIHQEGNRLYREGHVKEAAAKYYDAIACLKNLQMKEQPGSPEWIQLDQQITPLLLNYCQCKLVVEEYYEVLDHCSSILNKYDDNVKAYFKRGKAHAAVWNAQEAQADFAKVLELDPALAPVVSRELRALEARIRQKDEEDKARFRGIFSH
UniProt Q02252: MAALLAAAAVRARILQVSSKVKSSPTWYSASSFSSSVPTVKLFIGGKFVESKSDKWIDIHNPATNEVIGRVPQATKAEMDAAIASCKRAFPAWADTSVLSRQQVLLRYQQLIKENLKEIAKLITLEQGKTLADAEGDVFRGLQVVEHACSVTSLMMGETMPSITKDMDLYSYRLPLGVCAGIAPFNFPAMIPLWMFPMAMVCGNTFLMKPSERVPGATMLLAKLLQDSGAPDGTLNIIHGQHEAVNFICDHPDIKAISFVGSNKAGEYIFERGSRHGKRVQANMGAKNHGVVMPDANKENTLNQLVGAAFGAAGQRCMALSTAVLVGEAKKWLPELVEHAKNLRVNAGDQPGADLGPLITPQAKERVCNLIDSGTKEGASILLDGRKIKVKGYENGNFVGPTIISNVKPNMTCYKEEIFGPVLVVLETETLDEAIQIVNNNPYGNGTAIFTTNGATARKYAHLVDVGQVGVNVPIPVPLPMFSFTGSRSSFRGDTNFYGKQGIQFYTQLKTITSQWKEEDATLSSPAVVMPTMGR
UniProt Q9BQI0: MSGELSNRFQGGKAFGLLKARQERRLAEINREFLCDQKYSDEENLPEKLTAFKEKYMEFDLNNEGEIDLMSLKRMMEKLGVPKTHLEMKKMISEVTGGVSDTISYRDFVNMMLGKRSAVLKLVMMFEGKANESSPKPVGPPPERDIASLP
UniProt P52895: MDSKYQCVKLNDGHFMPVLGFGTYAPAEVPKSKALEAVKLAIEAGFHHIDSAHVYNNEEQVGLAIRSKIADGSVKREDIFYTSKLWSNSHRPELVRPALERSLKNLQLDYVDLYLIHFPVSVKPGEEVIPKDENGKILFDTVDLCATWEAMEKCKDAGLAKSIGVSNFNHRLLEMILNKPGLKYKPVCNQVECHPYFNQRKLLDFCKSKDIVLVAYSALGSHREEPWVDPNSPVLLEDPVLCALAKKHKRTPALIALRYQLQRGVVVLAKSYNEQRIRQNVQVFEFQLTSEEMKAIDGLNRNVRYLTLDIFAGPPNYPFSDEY
UniProt Q96A54: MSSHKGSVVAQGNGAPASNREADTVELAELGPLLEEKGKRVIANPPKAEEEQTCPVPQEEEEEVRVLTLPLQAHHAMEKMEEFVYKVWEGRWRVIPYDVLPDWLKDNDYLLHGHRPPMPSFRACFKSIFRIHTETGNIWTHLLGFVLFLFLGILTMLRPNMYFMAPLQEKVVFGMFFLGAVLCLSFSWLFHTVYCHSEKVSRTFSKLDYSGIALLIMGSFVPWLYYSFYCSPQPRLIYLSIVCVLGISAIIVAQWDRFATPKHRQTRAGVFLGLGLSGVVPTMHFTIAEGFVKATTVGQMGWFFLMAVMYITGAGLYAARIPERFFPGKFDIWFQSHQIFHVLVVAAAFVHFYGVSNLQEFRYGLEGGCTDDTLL
UniProt P51825: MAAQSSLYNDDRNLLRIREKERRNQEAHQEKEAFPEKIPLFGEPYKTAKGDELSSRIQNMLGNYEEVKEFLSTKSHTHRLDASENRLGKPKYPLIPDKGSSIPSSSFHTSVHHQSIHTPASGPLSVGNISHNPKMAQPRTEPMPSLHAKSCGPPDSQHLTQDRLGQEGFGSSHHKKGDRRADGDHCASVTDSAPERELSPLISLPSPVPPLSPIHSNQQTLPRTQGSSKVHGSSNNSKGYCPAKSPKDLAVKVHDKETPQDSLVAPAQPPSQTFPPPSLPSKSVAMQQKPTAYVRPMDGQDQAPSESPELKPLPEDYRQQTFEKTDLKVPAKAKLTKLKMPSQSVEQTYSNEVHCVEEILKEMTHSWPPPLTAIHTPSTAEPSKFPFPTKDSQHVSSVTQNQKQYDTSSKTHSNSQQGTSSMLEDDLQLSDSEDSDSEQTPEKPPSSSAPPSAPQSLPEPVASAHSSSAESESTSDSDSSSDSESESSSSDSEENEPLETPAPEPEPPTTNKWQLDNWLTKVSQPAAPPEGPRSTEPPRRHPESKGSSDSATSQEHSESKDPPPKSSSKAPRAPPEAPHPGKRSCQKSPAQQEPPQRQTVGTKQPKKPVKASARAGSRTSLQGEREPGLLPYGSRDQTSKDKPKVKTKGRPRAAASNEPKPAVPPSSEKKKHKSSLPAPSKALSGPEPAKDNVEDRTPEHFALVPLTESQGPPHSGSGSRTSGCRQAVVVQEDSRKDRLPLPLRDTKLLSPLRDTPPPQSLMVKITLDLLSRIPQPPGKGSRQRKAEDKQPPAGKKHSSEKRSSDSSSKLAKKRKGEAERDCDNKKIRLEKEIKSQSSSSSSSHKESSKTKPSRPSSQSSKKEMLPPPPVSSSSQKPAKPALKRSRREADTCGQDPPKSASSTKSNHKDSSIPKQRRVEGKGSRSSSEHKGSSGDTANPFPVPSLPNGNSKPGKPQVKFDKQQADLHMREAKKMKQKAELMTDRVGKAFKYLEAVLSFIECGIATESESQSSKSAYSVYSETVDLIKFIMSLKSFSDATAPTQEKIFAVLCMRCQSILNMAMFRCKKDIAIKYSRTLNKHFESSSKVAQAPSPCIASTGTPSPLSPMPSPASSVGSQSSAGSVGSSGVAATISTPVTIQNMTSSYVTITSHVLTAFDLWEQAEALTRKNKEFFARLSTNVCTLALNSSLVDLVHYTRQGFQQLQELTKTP
UniProt P02760: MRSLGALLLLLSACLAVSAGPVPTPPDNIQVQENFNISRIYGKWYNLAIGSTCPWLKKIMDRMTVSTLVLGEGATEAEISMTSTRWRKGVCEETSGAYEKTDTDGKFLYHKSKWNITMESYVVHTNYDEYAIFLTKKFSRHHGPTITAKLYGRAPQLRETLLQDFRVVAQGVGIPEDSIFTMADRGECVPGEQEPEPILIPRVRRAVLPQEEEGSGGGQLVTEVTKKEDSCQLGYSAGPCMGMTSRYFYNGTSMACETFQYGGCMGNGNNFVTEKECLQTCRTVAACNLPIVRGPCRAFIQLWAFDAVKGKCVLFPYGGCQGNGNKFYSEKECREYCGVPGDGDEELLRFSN
UniProt Q9NVV5: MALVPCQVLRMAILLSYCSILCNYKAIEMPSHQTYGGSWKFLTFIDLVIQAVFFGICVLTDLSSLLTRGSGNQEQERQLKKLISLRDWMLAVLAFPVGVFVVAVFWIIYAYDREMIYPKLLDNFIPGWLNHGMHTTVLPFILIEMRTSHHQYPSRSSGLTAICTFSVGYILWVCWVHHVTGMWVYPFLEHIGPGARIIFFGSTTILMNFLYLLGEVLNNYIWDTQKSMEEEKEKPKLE
UniProt P09917: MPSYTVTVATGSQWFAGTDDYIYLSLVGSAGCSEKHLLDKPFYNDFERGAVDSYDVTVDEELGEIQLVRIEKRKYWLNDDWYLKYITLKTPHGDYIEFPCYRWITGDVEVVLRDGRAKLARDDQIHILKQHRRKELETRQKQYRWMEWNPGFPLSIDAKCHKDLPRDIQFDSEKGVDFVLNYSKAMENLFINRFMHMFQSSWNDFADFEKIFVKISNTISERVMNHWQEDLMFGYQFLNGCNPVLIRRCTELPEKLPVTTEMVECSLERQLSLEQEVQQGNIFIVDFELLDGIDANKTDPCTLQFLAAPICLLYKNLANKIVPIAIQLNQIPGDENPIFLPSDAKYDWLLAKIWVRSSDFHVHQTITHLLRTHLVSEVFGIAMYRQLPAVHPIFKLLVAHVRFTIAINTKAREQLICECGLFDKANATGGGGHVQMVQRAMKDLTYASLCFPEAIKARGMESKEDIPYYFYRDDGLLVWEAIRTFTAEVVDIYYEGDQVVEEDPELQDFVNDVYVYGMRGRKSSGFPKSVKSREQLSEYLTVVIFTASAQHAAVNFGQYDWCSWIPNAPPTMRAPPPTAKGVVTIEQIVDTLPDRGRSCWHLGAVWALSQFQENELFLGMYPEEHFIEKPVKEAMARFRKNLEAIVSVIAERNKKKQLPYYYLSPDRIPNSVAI
UniProt P51648: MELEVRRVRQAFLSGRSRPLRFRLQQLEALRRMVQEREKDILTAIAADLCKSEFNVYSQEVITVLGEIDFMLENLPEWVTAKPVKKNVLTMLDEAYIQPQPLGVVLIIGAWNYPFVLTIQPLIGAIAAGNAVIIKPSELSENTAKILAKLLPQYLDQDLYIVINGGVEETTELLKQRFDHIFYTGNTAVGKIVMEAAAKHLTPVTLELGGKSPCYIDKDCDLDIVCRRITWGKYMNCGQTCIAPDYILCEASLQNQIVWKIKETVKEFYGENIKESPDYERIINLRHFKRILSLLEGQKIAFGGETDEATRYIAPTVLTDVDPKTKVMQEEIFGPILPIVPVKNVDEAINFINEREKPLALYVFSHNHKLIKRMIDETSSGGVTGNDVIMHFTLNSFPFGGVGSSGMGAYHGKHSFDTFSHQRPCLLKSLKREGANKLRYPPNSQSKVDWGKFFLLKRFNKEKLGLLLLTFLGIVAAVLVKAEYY
UniProt P49189: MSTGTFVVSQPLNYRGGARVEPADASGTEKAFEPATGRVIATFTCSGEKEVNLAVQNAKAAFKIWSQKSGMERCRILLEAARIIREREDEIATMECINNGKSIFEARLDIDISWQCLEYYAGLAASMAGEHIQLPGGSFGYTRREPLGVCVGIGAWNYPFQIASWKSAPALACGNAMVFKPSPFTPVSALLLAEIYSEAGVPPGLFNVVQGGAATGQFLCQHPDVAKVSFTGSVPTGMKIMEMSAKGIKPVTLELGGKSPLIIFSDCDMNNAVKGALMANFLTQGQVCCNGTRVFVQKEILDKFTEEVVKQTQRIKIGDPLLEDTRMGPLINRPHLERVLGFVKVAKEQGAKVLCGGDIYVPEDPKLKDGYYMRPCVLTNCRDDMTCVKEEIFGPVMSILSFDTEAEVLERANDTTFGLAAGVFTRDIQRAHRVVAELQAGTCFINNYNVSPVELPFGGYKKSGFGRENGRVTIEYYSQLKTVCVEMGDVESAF
UniProt Q6P6C2: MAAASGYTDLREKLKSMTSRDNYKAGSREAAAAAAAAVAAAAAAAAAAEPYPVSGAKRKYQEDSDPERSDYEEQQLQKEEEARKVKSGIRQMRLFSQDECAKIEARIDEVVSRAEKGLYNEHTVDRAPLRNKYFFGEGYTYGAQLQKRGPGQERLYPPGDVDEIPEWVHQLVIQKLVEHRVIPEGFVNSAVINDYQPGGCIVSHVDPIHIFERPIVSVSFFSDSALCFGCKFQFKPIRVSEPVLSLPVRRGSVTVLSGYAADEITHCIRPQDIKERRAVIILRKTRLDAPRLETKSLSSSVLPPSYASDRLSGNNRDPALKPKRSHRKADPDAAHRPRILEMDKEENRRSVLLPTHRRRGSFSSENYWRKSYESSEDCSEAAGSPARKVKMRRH
UniProt Q13686: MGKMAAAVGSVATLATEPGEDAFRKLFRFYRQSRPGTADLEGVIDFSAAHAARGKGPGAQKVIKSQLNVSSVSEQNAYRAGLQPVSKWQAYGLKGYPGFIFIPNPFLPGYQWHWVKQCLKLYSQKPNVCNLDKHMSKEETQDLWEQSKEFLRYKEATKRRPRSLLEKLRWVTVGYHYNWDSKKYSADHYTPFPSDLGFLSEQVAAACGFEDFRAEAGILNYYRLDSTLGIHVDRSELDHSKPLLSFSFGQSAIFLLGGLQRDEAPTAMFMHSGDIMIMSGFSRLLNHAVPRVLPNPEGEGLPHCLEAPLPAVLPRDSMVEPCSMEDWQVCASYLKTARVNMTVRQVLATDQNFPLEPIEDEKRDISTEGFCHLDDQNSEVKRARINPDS
UniProt P51857: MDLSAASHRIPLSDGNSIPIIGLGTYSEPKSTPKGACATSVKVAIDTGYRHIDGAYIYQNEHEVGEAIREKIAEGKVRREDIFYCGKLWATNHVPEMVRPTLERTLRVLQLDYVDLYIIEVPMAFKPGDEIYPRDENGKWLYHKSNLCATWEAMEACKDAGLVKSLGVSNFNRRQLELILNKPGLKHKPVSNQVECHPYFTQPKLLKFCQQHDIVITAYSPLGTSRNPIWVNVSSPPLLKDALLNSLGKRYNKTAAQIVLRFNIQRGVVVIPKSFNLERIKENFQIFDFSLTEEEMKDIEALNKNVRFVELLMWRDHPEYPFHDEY

Experiments:
Test in all cases: log2 fold change, soluble protein after heating vs DMSO (PISA); higher = thermal stabilisation; K562 cells, 10 uM, 30 min; active = over 0.2 and 3.5 SD of the protein, either way, in both replicates (recomputed)
[1] = compound: CN1CCN(CCOc2cc(OC3CCOCC3)c3c(Nc4c(Cl)ccc5c4OCO5)ncnc3c2)CC1 [saracatinib]
In short: (§1)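 Aliquots of K562 cells (2×10^6 cells/mL) treated with 10 μM compound for 30 min were heated for 3 min over 48°C-58°C. After pooling and extraction in PBS with 0.5% NP-40 at 4°C, soluble protein from a 21,000xg, 90 min spin was quantified by TMTpro 16plex LC-MS/MS with channel sums equalised. Thermal stability is expressed against control samples, from duplicates, as a log2 fold change.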

[2] = compound: CN1CCN(c2nc(C3=C(c4c[nH]c5ccccc45)C(=O)NC3=O)c3ccccc3n2)CC1 [sotrastaurin]
In short: as §1

[3] = compound: CN1CCc2c(c3ccccc3n2Cc2ccc(C(=O)NO)cc2)C1 [Tubastatin A]
In short: as §1

[4] = compound: CNC(=O)C1=CC=CC=C1NC2=NC(=NC=C2Cl)NC3=C(C=C(C=C3)N4CCOCC4)OC
In short: as §1

[5] = compound: CNC(=O)c1ccc(Nc2ncc(C(F)(F)F)c(NCc3nccnc3N(C)S(C)(=O)=O)n2)cc1 [defactinib]
In short: as §1

[6] = compound: CNCc1ccc(-c2[nH]c3cc(F)cc4c3c2CCNC4=O)cc1 [rucaparib]
In short: as §1

[7] = compound: CNc1nc(-c2ccc3c(N)n[nH]c3c2)cc(N2C[C@@H](C(=O)NC3CCCCC3)CC[C@H]2C)n1
In short: as §1

[8] = compound: COC(=O)N[C@@H](C)CNc1nccc(-c2cn(C(C)C)nc2-c2cc(Cl)cc(NS(C)(=O)=O)c2F)n1 [encorafenib]
In short: as §1

[9] = compound: COC(=O)[C@H](CCSC)NC(=O)C1=C(C=C(C=C1)NC[C@H](CS)N)C2=CC=CC=C2
In short: as §1

[10] = compound: COC1=CC=C(C=C1)CN2C=CC3=C2C=C(C=C3)C(=O)NO
In short: as §1

[11] = compound: CON(C)C(=O)N1N=C(c2cc(F)ccc2F)S[C@@]1(CCCN)c1ccccc1 [filanesib]
In short: as §1

[12] = compound: CO[C@H]1C[C@@H]2CC[C@@H](C)[C@@](O)(O2)C(=O)C(=O)N2CCCC[C@H]2C(=O)O[C@H]([C@H](C)C[C@@H]2CC[C@H](n3cnnn3)[C@H](OC)C2)CC(=O)[C@H](C)/C=C(\C)[C@@H](O)[C@@H](OC)C(=O)[C@H](C)C[C@H](C)/C=C/C=C/C=C/1C [zotarolimus]
In short: as §1

[13] = compound: COc1cc(C(=O)O)ccc1NC(=O)[C@@H]1N[C@@H](CC(C)(C)C)[C@](C#N)(c2ccc(Cl)cc2F)[C@H]1c1cccc(Cl)c1F [idasanutlin]
In short: as §1

[14] = compound: COc1cc(Nc2ncc3c(n2)-c2ccc(Cl)cc2C(c2c(F)cccc2OC)=NC3)ccc1C(=O)O [alisertib]
In short: as §1

[15] = compound: COc1cc2nc(-c3cc(F)ccc3O)nc(N[C@@H]3CNC[C@H]3C(C)(C)O)c2cc1OC
In short: as §1

[16] = compound: COc1cc2ncnc(Nc3ccc(F)c(Cl)c3)c2cc1OCCCN1CCOCC1 [gefitinib]
In short: as §1

[17] = compound: COc1cccc2cc(-c3nc([C@H]4CC[C@H](C(=O)O)CC4)n4ncnc(N)c34)[nH]c12
In short: as §1

[18] = compound: CS(=O)(=O)CCNCc1ccc(-c2ccc3ncnc(Nc4ccc(OCc5cccc(F)c5)c(Cl)c4)c3c2)o1 [lapatinib]
In short: as §1

[19] = compound: CS(=O)(=O)N1CCN(Cc2cc3nc(-c4cccc5[nH]ncc45)nc(N4CCOCC4)c3s2)CC1 [pictilisib]
In short: as §1

[20] = compound: CN1CC[C@H](c2c(O)cc(O)c3c(=O)cc(-c4ccccc4Cl)oc23)[C@H](O)C1 [alvocidib]
In short: as §1

Measured: log2 fold change

AIP (UniProt O00170)
inactive: [1] 0.009 | [2] -0.038 | [3] 0.034 | [4] 0.028 | [5] -0.068 | [6] -0.015 | [7] -0.046 | [8] 0.065 | [9] -0.025 | [10] 0.06 | [11] -0.041 | [12] 0.021 | [13] -0.019 | [14] -0.046 | [15] 0.054 | [16] -0.002 | [17] -0.019 | [18] -0.019 | [19] 0.015

ALDH6A1 (UniProt Q02252)
inactive: [1] 0.031 | [2] 0.144 | [3] 0.03 | [4] 0.021 | [5] -0.021 | [6] 0.021 | [7] -0.045 | [8] 0.024 | [9] -0.008 | [10] -0.128 | [11] -0.025 | [12] 0.024 | [13] -0.032 | [14] -0.09 | [15] 0.029 | [16] 0.04 | [17] 0.066 | [18] 0.02 | [19] 0.063

AMBRA1 isoform 5 (UniProt Q9C0C7)
inactive: [1] 0.073 | [20] -0.109 | [3] -0.179 | [5] -0.077 | [7] -0.01 | [9] -0.079 | [12] -0.008 | [13] -0.111 | [14] 0.036 | [17] -0.27

AIF1L isoform 2 (UniProt Q9BQI0)
inactive: [1] 0.122 | [20] 0 | [4] -0.133 | [5] -0.176 | [6] -0.069 | [7] -0.063 | [8] 0.182 | [9] 0.024 | [12] -0.361 | [13] 0.038 | [14] -0.038 | [15] 0.038 | [16] 0.178 | [17] -0.12 | [18] 0.079 | [19] 0.105

ADD3 isoform 2 (UniProt Q9UEY8)
inactive: [1] -0.112 | [2] 0.014 | [3] 0.058 | [5] -0.025 | [6] -0.036 | [7] -0.172 | [8] -0.166 | [9] -0.025 | [10] -0.022 | [11] -0.025 | [12] 0.186 | [13] -0.276 | [14] -0.042 | [15] 0.094 | [17] -0.003 | [18] -0.028 | [19] 0.125

AKR1C2 (UniProt P52895)
inactive: [1] -0.108 | [2] -0.009 | [3] 0.111 | [4] 0.052 | [5] 0.146 | [6] 0.146 | [7] 0.047 | [8] 0.094 | [9] -0.06 | [11] 0.259 | [12] 0.097 | [13] -0.015 | [14] -0.012 | [15] -0.013 | [16] 0.044 | [17] -0.012 | [18] 0.068 | [19] 0.165
active: [10] 0.706

ADIPOR1 (UniProt Q96A54)
inactive: [1] -0.046 | [2] -0.025 | [4] -0.273 | [5] 0 | [6] 0.046 | [7] -0.027 | [8] -0.075 | [9] -0.009 | [10] 0.056 | [11] -0.081 | [14] -0.139 | [15] -0.038 | [16] 0.007 | [17] 0.111 | [18] 0.025

AFDN isoform 1 (UniProt P55196)
inactive: [1] -0.192 | [2] -0.047 | [4] -0.025 | [5] 0.021 | [6] 0.009 | [7] -0.175 | [8] 0.018 | [9] -0.302 | [10] -0.151 | [11] 0.024 | [12] -0.01 | [13] 0.019 | [14] 0.127 | [17] 0.074 | [19] -0.144

AGPS (UniProt O00116)
inactive: [1] -0.01 | [2] 0.018 | [3] -0.011 | [4] 0.032 | [5] -0.039 | [6] -0.017 | [7] 0.047 | [8] 0.009 | [9] -0.042 | [10] 0.074 | [11] -0.145 | [12] 0.05 | [13] -0.037 | [14] -0.03 | [15] -0.044 | [16] 0.069 | [17] 0.048 | [18] 0.018 | [19] -0.003

AFF1 isoform 2 (UniProt P51825)
inactive: [1] -0.112 | [4] 0.025 | [5] 0.061 | [6] -0.123 | [7] 0.055 | [8] 0.23 | [9] -0.211 | [10] 0 | [13] -0.425 | [14] 0.004 | [15] 0.163 | [16] -0.1 | [17] 0.088 | [18] 0.056 | [19] -0.128

AMBP (UniProt P02760)
inactive: [1] 0.463 | [20] 0.097 | [4] 0.262 | [5] -0.15 | [6] -0.205 | [7] 0.186 | [8] -0.036 | [9] 0.212 | [10] -0.015 | [12] -0.204 | [14] 0.101 | [15] 0.063 | [17] 0.31 | [18] -0.263 | [19] -0.07

AIG1 (UniProt Q9NVV5)
inactive: [1] 0.048 | [3] -0.213 | [7] -0.029 | [13] 0.154 | [19] -0.092

Looked up one by one from the list above, 2 records:
AIP (UniProt O00170)
inactive: [1] 0.009 | [2] -0.038 | [3] 0.034 | [4] 0.028 | [5] -0.068 | [6] -0.015 | [7] -0.046 | [8] 0.065 | [9] -0.025 | [10] 0.06 | [11] -0.041 | [12] 0.021 | [13] -0.019 | [14] -0.046 | [15] 0.054 | [16] -0.002 | [17] -0.019 | [18] -0.019 | [19] 0.015

ADD3 isoform 2 (UniProt Q9UEY8)
inactive: [1] -0.112 | [2] 0.014 | [3] 0.058 | [5] -0.025 | [6] -0.036 | [7] -0.172 | [8] -0.166 | [9] -0.025 | [10] -0.022 | [11] -0.025 | [12] 0.186 | [13] -0.276 | [14] -0.042 | [15] 0.094 | [17] -0.003 | [18] -0.028 | [19] 0.125

(cont.)

ALOX5 (UniProt P09917)
inactive: [1] 0.083 | [3] 0.08 | [7] -0.029

ALDH3A2 isoform 2 (UniProt P51648)
inactive: [1] 0.122 | [4] 0.004 | [5] -0.116 | [7] -0.051 | [9] 0.074 | [10] -0.208

ALDH9A1 isoform 3 (UniProt P49189)
inactive: [1] -0.019 | [2] 0.01 | [3] -0.024 | [4] 0.05 | [5] -0.024 | [6] -0.054 | [7] -0.009 | [8] -0.016 | [9] -0.005 | [10] -0.006 | [11] -0.04 | [12] 0.001 | [13] -0.006 | [14] 0.017 | [15] -0.01 | [16] -0.028 | [17] 0.041 | [18] -0.007 | [19] -0.002

ALKBH5 (UniProt Q6P6C2)
inactive: [1] -0.006 | [2] -0.044 | [3] 0.118 | [4] -0.185 | [5] 0.021 | [6] 0.11 | [7] 0.035 | [8] -0.048 | [9] 0.003 | [10] 0.124 | [11] 0.001 | [12] -0.067 | [13] 0.016 | [14] -0.12 | [15] 0.044 | [16] 0.023 | [17] -0.138 | [18] -0.008 | [19] 0.094

ADGRD1 isoform 4 (UniProt Q6QNK2)
inactive: [1] -0.12 | [20] 0.048 | [3] 0.031 | [5] -0.05 | [6] -0.224 | [7] -0.214 | [8] 0.203 | [9] 0.053 | [10] -0.052 | [12] 0.017 | [13] -0.287 | [14] -0.044 | [17] 0.138

ADIPOR2 (UniProt Q86V24)
inactive: [1] 0.115 | [20] -0.109 | [3] -0.062 | [4] 0.044 | [5] 0.104 | [7] -0.108 | [9] -0.035 | [12] -0.07 | [13] 0.003 | [15] -0.012 | [18] 0.023 | [19] 0.076

AGTPBP1 isoform 3 (UniProt Q9UPW5)
inactive: [1] 0.123 | [5] -0.109 | [7] -0.095 | [9] -0.024 | [10] 0.01 | [14] -0.024 | [17] 0.132

AGAP1 (UniProt Q9UPQ3)
inactive: [1] -0.035 | [20] -0.162 | [4] -0.107 | [5] -0.066 | [7] 0.02 | [9] -0.175 | [10] 0.041 | [12] 0.072

ALKBH1 (UniProt Q13686)
inactive: [1] 0.111 | [20] 0.039 | [3] -0.25 | [5] 0.029 | [7] -0.072 | [9] 0.096 | [10] -0.058 | [12] -0.005 | [13] -0.226 | [15] -0.043 | [16] -0.096 | [18] -0.014 | [19] 0.074

AKR1D1 (UniProt P51857)
inactive: [1] -0.178 | [20] 0.061 | [3] -0.074 | [5] 0.124 | [7] 0.074 | [9] -0.14 | [12] 0.146 | [13] -0.248 | [15] 0.009 | [18] 0.069 | [19] 0.162

ALDOA (UniProt P04075)
inactive: [1] 0.101 | [2] 0.006 | [3] 0.05 | [4] 0.106 | [5] -0.029 | [6] -0.037 | [7] -0.033 | [8] -0.007 | [9] 0.004 | [11] 0.119 | [13] -0.153 | [14] -0.033 | [15] 0.02 | [16] -0.079 | [17] -0.005 | [18] -0.024 | [19] 0.192
